{
  "source": "paper PMC7225313",
  "binders": {"B1": {"name": "S100A9 (protein, UniProt P31725 1-113)", "chain": "MANKAPSQMERSITTIIDTFHQYSRKEGHPDTLSKKEFRQMVEAQLATFMKKEKRNEALINDIMEDLDTNQDNQLSFEECMMLMAKLIFACHEKLHENNPRGHGHSHGKGCGK"}},
  "molecular_target": "T1, Rv1768 (PE_PGRS31), full-length, 6xHis-tagged (M. tuberculosis H37Rv) (UniProt Q79FK9)",
  "T1 sequence": "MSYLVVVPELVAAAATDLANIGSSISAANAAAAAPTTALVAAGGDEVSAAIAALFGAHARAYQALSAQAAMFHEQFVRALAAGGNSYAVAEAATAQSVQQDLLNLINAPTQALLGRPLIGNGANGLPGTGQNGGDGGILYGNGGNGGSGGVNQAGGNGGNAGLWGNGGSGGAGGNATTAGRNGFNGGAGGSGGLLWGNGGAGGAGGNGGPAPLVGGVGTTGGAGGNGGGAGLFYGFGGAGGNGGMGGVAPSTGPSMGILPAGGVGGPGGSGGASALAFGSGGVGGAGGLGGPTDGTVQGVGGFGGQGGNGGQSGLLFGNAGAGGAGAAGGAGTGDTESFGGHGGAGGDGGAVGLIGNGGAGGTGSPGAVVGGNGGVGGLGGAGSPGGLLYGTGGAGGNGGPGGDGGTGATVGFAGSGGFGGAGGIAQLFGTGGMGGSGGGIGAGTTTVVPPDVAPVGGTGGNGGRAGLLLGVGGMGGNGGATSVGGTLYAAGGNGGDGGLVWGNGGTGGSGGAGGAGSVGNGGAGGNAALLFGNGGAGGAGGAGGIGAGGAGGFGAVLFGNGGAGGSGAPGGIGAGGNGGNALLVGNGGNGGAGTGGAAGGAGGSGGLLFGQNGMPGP",
  "experiment": "affinity purification with mass spectrometry; only the target purified",
  "note": "Results are given in words; binding and its absence hold for the method and conditions named. Binding seen in cells or lysates may run through a third protein. A yes stands for co-enrichment or nearness to the bait. Other partners may have been found. Where a sequence is shown, tags or fusion partners need not be part of it.",
  "data": [
    {"binder": "B1", "values": [
      {"measurement": "binding", "result": "binds"}
    ]}
  ]
}
